# Measured values published in paper PMC9852543.
# Sequences of proteins named here, by UniProt entry; tags and fusion partners are left off.
# UniProt Q8N122: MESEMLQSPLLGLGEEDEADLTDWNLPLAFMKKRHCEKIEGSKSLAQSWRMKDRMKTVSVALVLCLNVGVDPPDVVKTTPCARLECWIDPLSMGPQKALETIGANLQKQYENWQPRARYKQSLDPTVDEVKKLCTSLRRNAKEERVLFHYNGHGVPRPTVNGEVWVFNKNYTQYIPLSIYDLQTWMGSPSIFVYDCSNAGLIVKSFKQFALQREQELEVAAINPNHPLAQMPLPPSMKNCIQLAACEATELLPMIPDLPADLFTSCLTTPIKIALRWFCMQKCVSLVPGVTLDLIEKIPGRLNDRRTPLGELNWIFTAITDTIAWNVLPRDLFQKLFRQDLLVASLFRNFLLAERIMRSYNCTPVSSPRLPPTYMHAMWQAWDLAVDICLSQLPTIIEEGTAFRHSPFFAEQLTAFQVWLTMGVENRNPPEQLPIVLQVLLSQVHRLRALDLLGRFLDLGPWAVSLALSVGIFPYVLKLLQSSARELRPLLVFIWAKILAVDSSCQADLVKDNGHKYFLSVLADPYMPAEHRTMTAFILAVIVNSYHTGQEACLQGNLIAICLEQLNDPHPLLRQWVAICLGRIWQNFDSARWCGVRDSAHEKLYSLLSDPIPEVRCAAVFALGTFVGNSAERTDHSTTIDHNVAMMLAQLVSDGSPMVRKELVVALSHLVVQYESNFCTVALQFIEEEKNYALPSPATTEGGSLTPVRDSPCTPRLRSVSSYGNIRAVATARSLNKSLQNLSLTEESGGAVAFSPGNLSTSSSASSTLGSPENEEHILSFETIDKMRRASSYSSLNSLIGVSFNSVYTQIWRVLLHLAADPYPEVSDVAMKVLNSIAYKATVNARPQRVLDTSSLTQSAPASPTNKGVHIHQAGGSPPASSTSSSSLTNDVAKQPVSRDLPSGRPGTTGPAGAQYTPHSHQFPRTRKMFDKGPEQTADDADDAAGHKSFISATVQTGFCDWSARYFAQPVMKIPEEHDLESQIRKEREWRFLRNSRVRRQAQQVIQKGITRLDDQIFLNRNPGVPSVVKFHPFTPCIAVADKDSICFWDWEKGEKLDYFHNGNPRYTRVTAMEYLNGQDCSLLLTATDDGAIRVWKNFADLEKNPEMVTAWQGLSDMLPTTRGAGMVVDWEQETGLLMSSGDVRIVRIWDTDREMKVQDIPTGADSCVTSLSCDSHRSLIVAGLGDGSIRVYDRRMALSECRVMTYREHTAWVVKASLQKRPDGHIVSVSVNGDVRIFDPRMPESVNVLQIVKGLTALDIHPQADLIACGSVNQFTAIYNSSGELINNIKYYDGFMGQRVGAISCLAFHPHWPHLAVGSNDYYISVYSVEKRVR
# Results are given in words; binding and its absence hold for the method and conditions named. Binding seen in cells or lysates may run through a third protein. Some binding calls cover weakened binding; strength is not graded here. Where a sequence is shown, tags or fusion partners need not be part of it.
# What was measured:
# FLAG-HA-Unkempt (mouse) [1] = molecular target: T1, FLAG-HA-Unkempt (mouse) (UniProt Q8BL48); assay: co-IP; FLAG-HA-Unkempt immunoprecipitated from HeLa S3 cells induced with 1 ug/ml doxycycline for 24 h; cells serum-starved, then insulin or rapamycin; non-induced cells (DOX-) as negative control; detergent under which mTOR co-precipitates (CHAPS, which preserves Raptor-mTOR)
# T1 sequence: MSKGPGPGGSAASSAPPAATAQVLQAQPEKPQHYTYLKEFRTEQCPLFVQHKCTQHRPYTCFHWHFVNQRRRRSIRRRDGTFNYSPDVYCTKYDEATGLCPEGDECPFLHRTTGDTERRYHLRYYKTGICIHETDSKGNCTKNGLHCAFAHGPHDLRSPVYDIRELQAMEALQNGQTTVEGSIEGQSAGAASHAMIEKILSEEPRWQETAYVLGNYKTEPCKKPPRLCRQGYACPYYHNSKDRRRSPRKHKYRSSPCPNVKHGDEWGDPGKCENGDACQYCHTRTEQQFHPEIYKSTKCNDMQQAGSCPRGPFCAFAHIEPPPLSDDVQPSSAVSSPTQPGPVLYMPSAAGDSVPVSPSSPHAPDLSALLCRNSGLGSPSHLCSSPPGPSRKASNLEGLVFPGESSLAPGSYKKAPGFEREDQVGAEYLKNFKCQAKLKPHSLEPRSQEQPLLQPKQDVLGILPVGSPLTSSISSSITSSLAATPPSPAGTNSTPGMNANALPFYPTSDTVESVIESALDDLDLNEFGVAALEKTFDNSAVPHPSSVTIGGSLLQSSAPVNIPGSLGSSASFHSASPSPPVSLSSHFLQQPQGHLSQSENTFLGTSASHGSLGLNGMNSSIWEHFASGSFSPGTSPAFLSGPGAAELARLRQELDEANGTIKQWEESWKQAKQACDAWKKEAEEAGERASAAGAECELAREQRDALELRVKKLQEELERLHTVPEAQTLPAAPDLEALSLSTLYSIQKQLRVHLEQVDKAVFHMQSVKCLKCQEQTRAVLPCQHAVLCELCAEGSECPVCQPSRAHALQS
# FLAG-HA-Unkempt (mouse) [2] = molecular target: T1, FLAG-HA-Unkempt (mouse); assay: co-IP; as a1, but with the other detergent (Triton X-100, which disrupts the interaction of Raptor with mTOR)
substance,measurement,setting,value
regulatory-associated protein of mTOR (Raptor) (from UniProt Q8N122 1-1335),binding,FLAG-HA-Unkempt (mouse) [1],binds
same,binding,FLAG-HA-Unkempt (mouse) [2],binds
